Literature values in patent publication US11980627B2, “Triple pharmaceutical composition for proteinaceous infection” (priority 2019, dated 2024).
For at least one compound, name, drawing or mass did not settle the structure.

How the values were obtained:
patients with AD = settings: human, in vivo
AD patients = settings: twelve months' treatment, alone or in combination

Row | SMILES | cognitive function in patients with AD (patients with AD) | effects on cognition or function in AD (AD patients)
1 | Cc1ccc(-c2cc(C(F)(F)F)nn2-c2ccc(S(N)(=O)=O)cc2)cc1 [Celecoxib] | did not improve | –
2 | C[C@H]1c2cccc(O)c2C(=O)C2=C(O)[C@]3(O)C(=O)C(C(N)=O)=C(O)[C@@H](N(C)C)[C@@H]3[C@@H](O)[C@@H]21 [doxycycline] | – | no beneficial effects
